No constants are given. Whether binding was seen depends on the method and setting. Some binding calls cover weakened binding; strength is not graded here. Sequences can lack the tags named with a protein.
T1: Prep1(45-155) (UniProt P55347)
T1 sequence: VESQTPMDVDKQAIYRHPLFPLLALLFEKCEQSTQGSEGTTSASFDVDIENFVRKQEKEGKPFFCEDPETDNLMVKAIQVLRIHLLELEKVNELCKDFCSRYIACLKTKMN

T2: His6-tagged p160(20-160) (UniProt Q7TPV4 20-160)
T2 construct: also called His6-p160(20-160); p160(20-160) domain
T2 sequence (looked up): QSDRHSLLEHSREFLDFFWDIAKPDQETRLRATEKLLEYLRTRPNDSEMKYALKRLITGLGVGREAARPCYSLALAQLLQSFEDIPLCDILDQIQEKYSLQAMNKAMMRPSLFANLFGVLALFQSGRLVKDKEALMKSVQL


Assays:
Prep1(45-155) = biological target: T1, Prep1(45-155); experiment: ELISA; competition ELISA: plate coated with Prep1(45-155) (0.1 uM); His6-tagged p160(20-160) at 0.25 uM pre-incubated with peptides at 0.001-10 uM; detection with anti-His HRP-conjugated antibody; both purified
His6-tagged p160(20-160) = biological target: T2, His6-tagged p160(20-160); experiment: as above

Row | binding (Prep1(45-155)) | binding (His6-tagged p160(20-160)) | Binder
1 | binds |  | His6-tagged p160(20-160) (domain or fragment, UniProt Q7TPV4 20-160) QSDRHSLLEHSREFLDFFWDIAKPDQETRLRATEKLLEYLRTRPNDSEMKYALKRLITGLGVGREAARPCYSLALAQLLQSFEDIPLCDILDQIQEKYSLQAMNKAMMRPSLFANLFGVLALFQSGRLVKDKEALMKSVQL
2 |  | binds | RHPLFPLLALLFEK (N-terminal acetyl (Ac-); C-terminal amide (-NH2)) [Prep1(59-72) peptide]
